B1: SEQ ID NO 23 (VHH)
VHH: EVQLVESGGGLVQPGGSLRLSCAASGFNIKDTYIGWVRRAPGKGEELVARIYPTNGYTRYADSVKGRFTISADTSKNTAYLQMNSLRAEDTAVYYCAKYYPRTYLDFDYWGQGTLVTVSS
B2: SEQ ID NO 21 (VHH)
VHH: EVQLVESGGGLVQPGGSLRLSCAASGFNIKDTYIGWVRRAPGKGEELVARIYPTNGYTRYADSVKGRFTISADTSKNTAYLQMNSLRAEDTAVYYCAKYVRYFDYWGQGTLVTVSS
B3: SEQ ID NO 27 (VHH)
VHH: EVQLVESGGGLVQPGGSLRLSCAASGFNIKDTYIGWVRRAPGKGEELVARIYPTNGYTRYADSVKGRFTISADTSKNTAYLQMNSLRAEDTAVYYCAKRSHYSYFDYWGQGTLVTVSS
B4: LAG3 17D7 aVH domain (VHH)
VHH: EVQLVESGGGLVQPGGSLRLSCAASGFNIKDTCIGWVRRAPGKGTELVAEICTDIGYTRYADSVKGRFTISADTSKNTAYLQMNSLRAEDTAVYYCAAGEGSSGFHYWGQGTTVTVSS
B5: LAG3 9B4 aVH domain (VHH)
VHH: B4 VHH with T53Q, G99V, G101V, S102A, S103E, G104Y, H106E
B6: LAG3 P10C3 aVH domain (VHH)
VHH: B4 VHH with I55A, G99S, G101S, S102P, H106R
B7: LAG3 P11E2 aVH domain (VHH)
VHH: B4 VHH with T53D, A98S, G99Q, G101H, S102Q, S103W, G104S, H106K
B8: LAG3 P11E9 aVH domain (VHH)
VHH: B4 VHH with T53H, G99E, G101H, S102V, S103A, G104S, H106E
B9: LAG3 19G3 aVH domain (VHH)
VHH: B4 VHH with D31Y, T32Q, T53S, D54Y, I55D, G99E, G101S, S102V, S103E, H106I
B10: LAG3 21B11 aVH domain (VHH)
VHH: B4 VHH with T53Q, G99D, G101S, S102V, S103D, G104N, H106K

Substitutions are numbered along the chain they refer to. No constants are given. Whether binding was seen depends on the method and setting. Some binding calls cover weakened binding; strength is not graded here.

The target in one experiment is biotinylated DR5-Fc-avi (extracellular domain of Death receptor 5, amino acids 1 to 152, fused to human IgG1 Fc with C-terminal avi-tag). As to the kind of experiment: ELISA, biotinylated DR5 antigen on neutravidin plates, bacterial supernatants, anti-Flag/HRP. For orientation: An ELISA detects its analyte on a solid surface through an enzyme-linked reagent.
Turning to B1, the binding entry is “binds”.
On the same count and under the same terms, in the case of B2 it was “binds”.
Same read-out and setting: in the case of B3 it was “binds”.

The target of a further experiment is soluble human Lag3-IgG1-Fc with biotinylated C-terminal Avi-tag (human). The experiment in a line: ELISA, biotinylated LAG3 antigen on neutravidin plates, bacterial supernatants, anti-Flag/HRP.
In the case of B4, the binding result is “binds”.
With B5, the binding result was “binds”.
As to B6, the binding result is “binds”.
Same read-out and setting: the value for B7 was “binds”; that for B8 was “binds”; that for B9 was “binds”.
Same read-out and setting: in the case of B10 it was “binds”.

The values above are taken from US20200354457A1.
